In PubChem BioAssay AID206 (DTP/NCI, 2004) one finds T/C and survivor count data, which are given here for five compounds.

The list does not hold the whole screen: it covers a few groups of compounds. Not every dose and run of a compound is shown. T/C is the treated group as % of the vehicle group. Schedules are NCI's codes, taken here to give the interval after Q, in days (D) or hours (H), and the number of doses after X. Some T/C values carry the count of animals alive at the toxicity check; where neither a count nor a note follows, no animal had died by that day. Some entries were tested several times; the values are given in rising order. Some entries give survivors of the animals treated and no T/C: the source files T/C as zero there, which appears to mark a toxic dose or a test without result, not a measured value. Counts of survivors are from the toxicity check, whose day is not always given; animals may have died later.

The subject of the assay is nude mice, HT29 intrarenal xenograft, tumor weight T/C. The assay is described as follows: NCI In Vivo Anticancer Drug Screen. Data for tumor model HT29;CX-1 Human Adenocarcinoma (MER+) (intrarenal inoculation) in NU/NU Swiss (nude) mice. Particulars: T/C endpoint: mean tumor weight change, higher T/C = larger tumour. As to the method: The antitumor activity of compounds was measured in mice bearing transplantable tumors. Survival or tumor size were measured and the results are expressed as the measurement made in the treated group (T) divided by the measurement made in the vehicle treated control group (C). The tumor model used in this assay is HT29;CX-1 Human Adenocarcinoma (MER+) (intrarenal inoculation) in NU/NU Swiss (nude) mice

Consider `O=NN(CCSCCCl)C(=O)NC1CCCCC1`, for which the T/C was 127 % of control (dose: 75.0 mg/kg/injection, schedule: Q04DX004 (sc), vehicle: saline with Tween-80, evaluated on day 15) and 46 % of control (dose: 300.0 mg/kg/injection, schedule: Q04DX004 (sc), vehicle: saline with Tween-80, evaluated on day 15).
For `CC1=CC(=O)C(N(CCCl)CCCl)=CC1=O`, the T/C reads like this: (dose: 0.75 mg/kg/injection, schedule: Q01DX010 (sc), vehicle: Klucel (hydroxypropylcellulose) (HPC), evaluated on day 11) 47 [2 of 2 alive on day 11] and 231 % of control; (dose: 1.5 mg/kg/injection, schedule: Q01DX010 (sc), vehicle: Klucel (hydroxypropylcellulose) (HPC), evaluated on day 11) 32 and 137 % of control [2 of 2 alive on day 11].
As to `Cc1ccc(N(CCBr)CCBr)cc1`, the T/C was 89 % of control (dose: 9.38 mg/kg/injection, schedule: Q04DX004 (sc), vehicle: Klucel (hydroxypropylcellulose) (HPC), evaluated on day 15); 83 % of control (dose: 18.75 mg/kg/injection, schedule: Q04DX004 (sc), vehicle: Klucel (hydroxypropylcellulose) (HPC), evaluated on day 15); 32 % of control (dose: 37.5 mg/kg/injection, schedule: Q04DX004 (sc), vehicle: Klucel (hydroxypropylcellulose) (HPC), evaluated on day 15); 31 % of control [4 of 6 alive on day 15] (dose: 75.0 mg/kg/injection, schedule: Q04DX004 (sc), vehicle: Klucel (hydroxypropylcellulose) (HPC), evaluated on day 15).
As for `ClCCN(CCCl)c1ccccc1`, the T/C (dose: 3.0 mg/kg/injection, schedule: Q01DX010 (sc), vehicle: saline with Tween-80, evaluated on day 11) is 63 and 153 % of control; the T/C (dose: 3.13 mg/kg/injection, schedule: Q01DX010 (sc), vehicle: saline with Tween-80, evaluated on day 11) was 69 % of control; the T/C (dose: 6.0 mg/kg/injection, schedule: Q01DX010 (sc), vehicle: saline with Tween-80, evaluated on day 11) is 90 and 93 % of control; the T/C (dose: 6.25 mg/kg/injection, schedule: Q01DX010 (sc), vehicle: saline with Tween-80, evaluated on day 11) is 87 % of control; the T/C (dose: 12.0 mg/kg/injection, schedule: Q01DX010 (sc), vehicle: saline with Tween-80, evaluated on day 11) is 71 and 119 % of control; the T/C (dose: 12.5 mg/kg/injection, schedule: Q01DX010 (sc), vehicle: saline with Tween-80, evaluated on day 11) was 18 % of control. The survivor count is 0 of 6 on day 11 and 2 of 6 on day 11 (dose: 24.0 mg/kg/injection, schedule: Q01DX010 (sc), vehicle: saline with Tween-80); 0 of 3 on day 11 and 1 of 3 on day 11 (dose: 25.0 mg/kg/injection, schedule: Q01DX010 (sc), vehicle: saline with Tween-80); 0 of 3 on day 11 (dose: 50.0 mg/kg/injection, schedule: Q01DX010 (sc), vehicle: saline with Tween-80); 0 of 3 on day 11 (dose: 100.0 mg/kg/injection, schedule: Q01DX010 (sc), vehicle: saline with Tween-80); 0 of 3 on day 11 (dose: 200.0 mg/kg/injection, schedule: Q01DX010 (sc), vehicle: saline with Tween-80).
`C[N+](CCCl)(CCCl)Cc1ccc([N+](=O)[O-])cc1`: the T/C (dose: 25.0 mg/kg/injection, schedule: Q04DX004 (sc), vehicle: suspension in saline, evaluated on day 15) is 135 % of control.
